Measurements as given in patent US7261893 (Pfizer, dated 2007).
No constants are given. Whether binding was seen depends on the method and setting. Some results given as binding are weak or reduced against the parent protein; the word gives no strength.

Sequences of proteins named here, by UniProt entry; tags and fusion partners are left off. Residues count along the entry.
UniProt O14793, residues 24-375: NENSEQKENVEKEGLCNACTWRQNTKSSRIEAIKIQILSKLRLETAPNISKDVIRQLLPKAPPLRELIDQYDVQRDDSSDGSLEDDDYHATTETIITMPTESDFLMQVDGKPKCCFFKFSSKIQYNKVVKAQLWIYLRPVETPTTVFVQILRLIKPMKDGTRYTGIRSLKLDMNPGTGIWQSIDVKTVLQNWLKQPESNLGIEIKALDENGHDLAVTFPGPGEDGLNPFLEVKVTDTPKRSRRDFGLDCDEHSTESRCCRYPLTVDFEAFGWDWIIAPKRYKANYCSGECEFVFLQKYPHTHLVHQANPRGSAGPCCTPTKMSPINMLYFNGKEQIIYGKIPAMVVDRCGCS

Tests used:
[1] = molecular target: mature human GDF-8 (growth and differentiation factor-8) (human) (UniProt O14793); experiment: Western blotting, non-reducing conditions
[2] = molecular target: GDF-8 latent complex (human) (UniProt O14793); experiment: immunoprecipitation from 35S-labelled CHO conditioned medium, antibody 20 ug/ml, Protein A-Sepharose, reducing SDS-PAGE
[3] = molecular target: mature human GDF-8 (growth and differentiation factor-8) (human) (UniProt O14793); experiment: as above
[4] = molecular target: unprocessed GDF-8 (human) (UniProt O14793); experiment: as above

- binding [1]: binds
- binding [2]: binds
- binding [3]: binds
- binding [4]: binds
B1: Myo28 human IgG1 antibody (antibody, V domains shown)
VH: QVTLKESGGGLVQPGGSLRLSCAASGFTFSRYVINWVRQAPGKGLEWVSAISVTGGSTAYADSVRGRFTISRDNSKNTLYLQMNSLRAEDTAVYYCTKGQWERGSYYFDYWGRGTLVTVSS
VL: QSVLTQPPSVSGAPGQRVTISCTGSSSNIGDGYDVHWYQQLPGTAPKLLIYGNSHRPSGVPDRFSGSKSDTSASLAITGLQVEDEADYFCHSYDGSVSGWIFGGGTKLTVLG
